{
  "sequences": {"note": "By UniProt entry, the sequences of proteins in these tests, tags left out.", "UniProt Q0JBA9, entry or part of it": "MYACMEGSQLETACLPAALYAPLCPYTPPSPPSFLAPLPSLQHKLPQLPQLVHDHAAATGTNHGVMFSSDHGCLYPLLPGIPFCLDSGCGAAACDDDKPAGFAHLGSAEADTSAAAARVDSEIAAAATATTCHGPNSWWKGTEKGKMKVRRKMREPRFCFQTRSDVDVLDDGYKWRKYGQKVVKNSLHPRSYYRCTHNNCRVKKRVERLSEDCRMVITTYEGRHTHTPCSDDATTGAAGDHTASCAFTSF"},
  "source": "paper PMC7819943",
  "about": "“Rice protein-binding microarrays: a tool to detect cis-acting elements near promoter regions in rice”",
  "note": "This is one part of the list.",
  "data": [
    {"molecular_target": "OsWRKY34 (Oryza sativa, UniProt Q0JBA9 1-250)", "experiment": "protein-binding microarray (RPBM); PBS, 2% BSA, 51.3 ng/ul salmon testes DNA, 50 uM zinc acetate, 200 nM TF, 25 C, 1 h; high values mean tight binding", "settings": "protein: recombinant; tags: N-terminal polyhistidine and DsRed monomer fusion (pET32a); label: CyDye5-dUTP incorporated in the synthesized complementary strand; 3' TTTTT single-stranded linker to array surface; dsDNA, one strand shown", "procedure,_shortened": "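In PBS with 2% BSA, salmon testes DNA and 50 µM zinc acetate, 200 nM protein was incubated on a custom Agilent array at 25 °C for 1 h and then washed off. The array had been made double-stranded by primer extension with Cy5-dUTP and blocked with 2% BSA. The proteins were transcription factors fused N-terminally to polyhistidine and DsRed, expressed in E. coli BL21-CodonPlus and purified on Ni–NTA. The binding signal is per-feature fluorescence intensity (arbitrary units) from an Axon 4000B scanner.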", "values": [
      {"sequence": "GTATGACGCAATTGATTTTTTATCTAACGTTTGACCATTTCGGAGTCACCTAGTGCAG", "binding signal": "10300 fluorescence intensity (a.u.)"},
      {"sequence": "GGTTTTTGTCATGATCGTTGATGAAGATAAGTCACATGCCCGGAGTCACCTAGTGCAG", "binding signal": "9240 fluorescence intensity (a.u.)"},
      {"sequence": "GTGTCAGTGGTAATTTTATCAACTTTAAGATATACCGATCCGGAGTCACCTAGTGCAG", "binding signal": "8440 fluorescence intensity (a.u.)"},
      {"sequence": "CTGCCTGCCTTGACCACACACACACTGCCCGGCCAGCTCACGGAGTCACCTAGTGCAG", "binding signal": "10300 fluorescence intensity (a.u.)"},
      {"sequence": "CTTTTTCACTAGCGCTTAATCTGTTTGTTACATTAAAACTCGGAGTCACCTAGTGCAG", "binding signal": "10400 fluorescence intensity (a.u.)"},
      {"sequence": "TATCAACTACCCAGTCCGCGTTTTCCTCTCTAAACCCGCACGGAGTCACCTAGTGCAG", "binding signal": "8240 fluorescence intensity (a.u.)"},
      {"sequence": "CCCAACTACCTTAAAGCACCACATCATTTACCTGTACAAACGGAGTCACCTAGTGCAG", "binding signal": "10200 fluorescence intensity (a.u.)"},
      {"sequence": "GCACGACCCAACCAACTGCGCCGCCGCTGCGCCCTCGTCGCGGAGTCACCTAGTGCAG", "binding signal": "8980 fluorescence intensity (a.u.)"},
      {"sequence": "CACCCTTGCATCCGTCGCGCTCGTGAACGCCATCACCCATCGGAGTCACCTAGTGCAG", "binding signal": "9940 fluorescence intensity (a.u.)"},
      {"sequence": "TTTCATTTACATGCTTGCAAACATTGTTTTTGTTGGATATCGGAGTCACCTAGTGCAG", "binding signal": "9800 fluorescence intensity (a.u.)"},
      {"sequence": "ATGTTTGACCATTCATCTTATTCAAAAAATTTACATAATTCGGAGTCACCTAGTGCAG", "binding signal": "8940 fluorescence intensity (a.u.)"},
      {"sequence": "ACTCCCTCTATTTTCAAATAGCTATTGACTGTATCTAGTACGGAGTCACCTAGTGCAG", "binding signal": "8480 fluorescence intensity (a.u.)"},
      {"sequence": "TTTTGTTTTTTCTCGCTTTTTTTCTCCACCGGGGAGTCATCGGAGTCACCTAGTGCAG", "binding signal": "9190 fluorescence intensity (a.u.)"},
      {"sequence": "CTATACTATTAATATATGGTCTCATCTGTCATACATATATCGGAGTCACCTAGTGCAG", "binding signal": "10500 fluorescence intensity (a.u.)"},
      {"sequence": "CAACAAGGACACGGACACACACACCCACTCCTCCATCTTCCGGAGTCACCTAGTGCAG", "binding signal": "9400 fluorescence intensity (a.u.)"},
      {"sequence": "ACAAACCTTTTATGCCTCTTTTGCCGTAACAATTTACTGACGGAGTCACCTAGTGCAG", "binding signal": "9550 fluorescence intensity (a.u.)"},
      {"sequence": "CTTGCATTGGCGCCGCTCAACTCATCTCCAACTATAAATACGGAGTCACCTAGTGCAG", "binding signal": "9560 fluorescence intensity (a.u.)"},
      {"sequence": "TTGCTTCTCATGTTTGCTCGATACATGTAGTCGACGGTTCCGGAGTCACCTAGTGCAG", "binding signal": "11100 fluorescence intensity (a.u.)"},
      {"sequence": "GCCGCTTATGGCTCTGCACCGCACCTTGACCCAACCAAATCGGAGTCACCTAGTGCAG", "binding signal": "8150 fluorescence intensity (a.u.)"},
      {"sequence": "GGGTTGGTGGGCCTGATGGGCTTGGTTTTAGGGTTTCGTGCGGAGTCACCTAGTGCAG", "binding signal": "9510 fluorescence intensity (a.u.)"},
      {"sequence": "GTGTTACTTATGTGGATCGTTATCCGCATCTCTCCTCCACCGGAGTCACCTAGTGCAG", "binding signal": "8440 fluorescence intensity (a.u.)"},
      {"sequence": "GTCCGACCAACCAACCGCGGTCGGCCAGCTCTTCGTCCACCGGAGTCACCTAGTGCAG", "binding signal": "8040 fluorescence intensity (a.u.)"},
      {"sequence": "GCAATGTTTGTCTCCCTAAATCAGTATTCATGCATCGTTCCGGAGTCACCTAGTGCAG", "binding signal": "8500 fluorescence intensity (a.u.)"},
      {"sequence": "CCTTTCTTGTTGCTACCTCACCAATCACCAATCTTGCTGACGGAGTCACCTAGTGCAG", "binding signal": "8940 fluorescence intensity (a.u.)"},
      {"sequence": "TCTTCGCTCTCATCTCCGCTTCCAGCCAGCCACTGCAACCCGGAGTCACCTAGTGCAG", "binding signal": "8200 fluorescence intensity (a.u.)"},
      {"sequence": "GCCGCACGTCTCTCTCCCCGCTCCGCTTCACCGGCGCCGTCGGAGTCACCTAGTGCAG", "binding signal": "12100 fluorescence intensity (a.u.)"},
      {"sequence": "GTGCGCGGTTTGTGTGAGTTTATGGGTACACATTTATGGTCGGAGTCACCTAGTGCAG", "binding signal": "9450 fluorescence intensity (a.u.)"},
      {"sequence": "TTGTCGAGGCTGATGGATAGGTTTGCTGCCTGCCAAGATTCGGAGTCACCTAGTGCAG", "binding signal": "8260 fluorescence intensity (a.u.)"},
      {"sequence": "GTATTCCTTGTTGCATGCCTCAATCAATCTTCTTCATTCTCGGAGTCACCTAGTGCAG", "binding signal": "10500 fluorescence intensity (a.u.)"},
      {"sequence": "TTGAAGCTTATGTTTCTCCTCAAACTGCCATGCTTACTGACGGAGTCACCTAGTGCAG", "binding signal": "9630 fluorescence intensity (a.u.)"},
      {"sequence": "TCTATCCGACGAGCAGACCAAGGGAGGGGAGGGGATCCTGCGGAGTCACCTAGTGCAG", "binding signal": "16200 fluorescence intensity (a.u.)"},
      {"sequence": "CCACCACCACCACCACCACCGCGCCCGACAACCACTTCTCCGGAGTCACCTAGTGCAG", "binding signal": "8690 fluorescence intensity (a.u.)"},
      {"sequence": "TATCTGCAGGTCAACTCCATCCTTGTCGCCGCCACACAAACGGAGTCACCTAGTGCAG", "binding signal": "8310 fluorescence intensity (a.u.)"},
      {"sequence": "ATCCAGGTTCTTGCCTCTTCCTTTATTTTTGCTATAAGATCGGAGTCACCTAGTGCAG", "binding signal": "10700 fluorescence intensity (a.u.)"},
      {"sequence": "GACTTTTTATCCAACGTTTGACCATTCGTCTTATTCAAAACGGAGTCACCTAGTGCAG", "binding signal": "10300 fluorescence intensity (a.u.)"},
      {"sequence": "GACCACCCCACTCCGCGCCACTGTCCACGTCTGCATAGTCCGGAGTCACCTAGTGCAG", "binding signal": "11800 fluorescence intensity (a.u.)"},
      {"sequence": "AGTGCATGGGTTCTCTGTAGCGCTCGTCCCCATTGTTGTCCGGAGTCACCTAGTGCAG", "binding signal": "11500 fluorescence intensity (a.u.)"},
      {"sequence": "CGATGGTGGCATGGGGTTGCTAAGCTAATTTGACCGCTGACGGAGTCACCTAGTGCAG", "binding signal": "8400 fluorescence intensity (a.u.)"},
      {"sequence": "TTTGGGTGGAGGGGTGTTGGCCCTATGTAATGGATGGGAGCGGAGTCACCTAGTGCAG", "binding signal": "12600 fluorescence intensity (a.u.)"},
      {"sequence": "GATTTTTCTCTCCTTCGCATGGAAGGATCCGGTTATTATACGGAGTCACCTAGTGCAG", "binding signal": "9760 fluorescence intensity (a.u.)"},
      {"sequence": "CTACATTACCACGCATCCAACCAACGAACTAACCATACAACGGAGTCACCTAGTGCAG", "binding signal": "8050 fluorescence intensity (a.u.)"},
      {"sequence": "ATTGGATACATGTCATTGTAAGTTTGTAACTCTACCAGTTCGGAGTCACCTAGTGCAG", "binding signal": "9790 fluorescence intensity (a.u.)"}
    ]}
  ]
}
